Test results as given in patent US20060240535A1, “Carbonyl reductase from lactococcus lactis” (GEORGIA TECH RESEARCH CORPORATION, priority 2004, published 2006).
At least one structure is not confirmed: it was looked up by name or label, or the drawing left a doubt.

Tested on: carbonyl reductase from Lactococcus lactis
Assay: CRLL activity assay (decrease of NADPH absorption); substrate table of the isolated carbonyl reductase
Format: biochemical
Conditions: Substrate (20 mM)
Text: The construct crll-pkk223-3 as well as crll-his-pkk223-3 were both transformed separately into the E. coli host strain HB101 for expression.

O=C(O)C(=O)Cc1ccccc1 [phenylpyruvate]
Activity (U/mL): 0 U/mL | spec. Act. (U/mg) (activity per protein (0.37, 5.5 or 6.6 mg/mL)): 0 U/mg
